Patent EP4628892A1 (Korea Research Institute of Bioscience and Biotechnology, dated 2025)
Residue numbers refer to the chain shown, from its start. Results are given in words; binding and its absence hold for the method and conditions named. Some entries that bind do so weakly or less than the wild type.

T1: NgR1 (antigen immobilized on biochips) (UniProt Q9BZR6)
T1 sequence (looked up): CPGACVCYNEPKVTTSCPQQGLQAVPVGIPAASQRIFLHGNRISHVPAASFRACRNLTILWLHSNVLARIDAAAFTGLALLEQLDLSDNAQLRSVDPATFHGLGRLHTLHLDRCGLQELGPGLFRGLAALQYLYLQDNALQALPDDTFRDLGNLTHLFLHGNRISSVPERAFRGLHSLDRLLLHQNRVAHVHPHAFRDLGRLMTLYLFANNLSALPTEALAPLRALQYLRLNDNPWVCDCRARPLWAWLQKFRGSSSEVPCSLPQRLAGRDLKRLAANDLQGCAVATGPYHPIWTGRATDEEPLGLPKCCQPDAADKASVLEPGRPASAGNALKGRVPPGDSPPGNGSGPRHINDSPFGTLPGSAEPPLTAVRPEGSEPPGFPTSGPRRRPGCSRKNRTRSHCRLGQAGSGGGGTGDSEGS

B1: H6HE2L antibody (antibody, human IgG1, kappa, V domains shown)
VH: QMQLVQSGGGLEQPGRSLRLSCVTSGFNFNDYAMHWVRQAPGKGLEWVSGISWNSGAIGYADSVKGRFTVSRDNSKNSLYLQMNSLRAEDTAVYYCARDYNYETSGYYHGFDNWGQGTLVTVSS
VL: DIQMTQSPSSVSASVGDRVTITCRASQGISRWLSWYQQKPGKAPKLLIYAASNLQSGVPLRFSGSGSGTDFTLTINSLQPEDSATYYCQQTNNFPYTFGQGTKVEIKR
notes: Optimized from CSA108
B2: C1HE2E6 antibody (antibody, human IgG1, kappa, V domains shown)
VH: B1 VH with T104I, H109Y
VL: B1 VL with S67F
notes: Optimized from CSA108
B3: CSA108 antibody (antibody, human IgG1, kappa, V domains shown)
VH: B1 VH with N101Y, H109Y
VL: B1 VL with S34A
notes: also called anti-NgR1 antibody CSA108
B4: CSA123 antibody (antibody, human IgG1, kappa, V domains shown)
VH: QMQLVQSGAEVKKPGASVKVSCKVSGYTLSELSIHWVRQAPGKGLEWMGGFDPEDDETVYAQKFQGRVTLTDDTSTDTAYMELSSLRSEDTAVYYCARDLGYLTSGNYYDAFDIWGRGTMITVSS
VL: B1 VL with G28D, S30N, S34A, N53R, Y96R, K103R, V104L
notes: also called anti-NgR1 antibody CSA123
B5: D11 antibody (antibody, human IgG1, kappa, V domains shown)
VH: B4 VH with P53S, I114F
VL: B1 VL with G28D, S30N, S34A, N53R, Y96R, K103R, V104L
notes: Optimized from CSA123
B6: G8 antibody (antibody, human IgG1, kappa, V domains shown)
VH: B4 VH with T28P, P53S, D113G
VL: B1 VL with G28D, S30N, S34A, N53R, Y96R, K103R, V104L
notes: Optimized from CSA123
B7: S3 antibody (antibody, human IgG1, kappa, V domains shown)
VH: B4 VH with D110N, D113G
VL: B1 VL with G28D, S30N, S34A, N53R, Y96R, K103R, V104L
notes: Optimized from CSA123
B8: S6 antibody (antibody, human IgG1, kappa, V domains shown)
VH: B4 VH with E31G, P53S
VL: B1 VL with G28D, S30N, S34A, N53R, Y96R, K103R, V104L
notes: Optimized from CSA123

target: T1, NgR1 (antigen immobilized on biochips); assay: SPR, Biacore 8K; NgR1 immobilized on biochip, antibody flowed at different concentrations

| Binder | binding |
| --- | --- |
| B1 | binds |
| B2 | binds |
| B3 | binds |
| B4 | binds |
| B5 | binds |
| B6 | binds |
| B7 | binds |
| B8 | binds |
